These are yes or no findings as the source states them, for the method shown. Binding seen in cells or lysates may run through a third protein. Some binding calls cover weakened binding; strength is not graded here. For some assays here: Where a sequence is shown, tags or fusion partners need not be part of it.
How the values were obtained:
[1] = target: Human TRIM21, HA-tagged (pcDNA3.1-TRIM21-HA) (human) (UniProt P19474); assay: co-IP
[2] = target: Endogenous p65 of HEK293T cells (human (endogenous in HEK293T)), Q04206; assay: co-IP; conditions: remark: other sources report otherwise

Amino acid sequences for entries named in this document (tags omitted).
UniProt P19474: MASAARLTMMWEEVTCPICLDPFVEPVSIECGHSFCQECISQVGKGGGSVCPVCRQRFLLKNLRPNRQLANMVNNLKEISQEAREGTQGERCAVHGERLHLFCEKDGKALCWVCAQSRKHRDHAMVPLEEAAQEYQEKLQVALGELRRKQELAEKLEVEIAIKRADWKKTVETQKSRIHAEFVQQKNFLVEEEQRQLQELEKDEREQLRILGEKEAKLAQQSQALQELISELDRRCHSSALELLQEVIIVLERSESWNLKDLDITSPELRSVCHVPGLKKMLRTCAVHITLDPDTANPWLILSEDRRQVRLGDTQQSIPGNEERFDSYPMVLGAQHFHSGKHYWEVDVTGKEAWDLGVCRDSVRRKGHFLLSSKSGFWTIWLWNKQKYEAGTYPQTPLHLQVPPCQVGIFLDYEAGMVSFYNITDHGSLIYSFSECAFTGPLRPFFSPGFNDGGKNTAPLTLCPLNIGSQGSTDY

Row | Binder | binding [1] | binding [2]
1 | Toxoplasma gondii ROP18 of the type I RH strain, FLAG-tagged (pcDNA3.1-ROP18I-FLAG) (enzyme, UniProt Q2PAY2 1-554) MFSVQRPPLTRTVVRMGLATLLPKTACLAGLNVALVFLLFQVQDGTGITLGPSKLDSKPTSLDSQQHVADKRWLATVGHYKHLAGATESTRDVSLLEERAQHRVNAQETNQRRTIFQRLLNLLRRRERDGEVSGSAADSSSRPRLSVRQRLAQLWRRAKSLFKRGIRRYFPQGRNRQRSLRAQRRRSELVFEKADSGCVIGKRILAHMQEQIGQPQALENSERLDRILTVAAWPPDVPKRFVSVTTGETRTLVRGAPLGSGGFATVYEATDVETNEELAVKVFMSEKEPTDETMLDLQRESSCYRNFSLAKTAKDAQESCRFMVPSDVVMLEGQPASTEVVIGLTTRWVPNYFLLMMRAEADMSKVISWVFGDASVNKSEFGLVVRMYLSSQAIKLVANVQAQGIVHTDIKPANFLLLKDGRLFLGDFGTYRINNSVGRAIGTPGYEPPERPFQATGITYTFPTDAWQLGITLYCIWCKERPTPADGIWDYLHFADCPSTPELVQDLIRSLLNRDPQKRMLPLQALETAAFKEMDSVVKGAAQNFEQQEHLHTE | binds | 
2 | Endogenous IκB-α of HEK293T cells, P25963 1-317 (protein) MFQAAERPQEWAMEGPRDGLKKERLLDDRHDSGLDSMKDEEYEQMVKELQEIRLEPQEVPRGSEPWKQQLTEDGDSFLHLAIIHEEKALTMEVIRQVKGDLAFLNFQNNLQQTPLHLAVITNQPEIAEALLGAGCDPELRDFRGNTPLHLACEQGCLASVGVLTQSCTTPHLHSILKATNYNGHTCLHLASIHGYLGIVELLVSLGADVNAQEPCNGRTALHLAVDLQNPDLVSLLLKCGADVNRVTYQGYSPYQLTWGRPSTRIQQQLGQLTLENLQMLPESEDEESYDTESEFTEFTEDELPYDDCVFGGQRLTL |  | binds
